Source: doi:10.1371/journal.pone.0140310, primary screening data, rounded.

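The test systems are human melanoma cell lines, treated with two drugs together for 72 h and then stained and imaged. Values are the number of DAPI-stained nuclei as a percentage of the DMSO control: 100 is no effect, lower means fewer cells. Every drug was used at one fixed concentration, the higher of two screened. No replicate spread is given; individual values may be noisy.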
An unselected part of the screen is shown.
A dash means that no value is listed here.

Every entry is a combination with nutlin-3 at 0.5 µM: COc1ccc(C2=N[C@@H](c3ccc(Cl)cc3)[C@@H](c3ccc(Cl)cc3)N2C(=O)N2CCNC(=O)C2)c(OC(C)C)c1

Drug key:
darinaparsin, 2 µM: C[As](C)SC[C@H](NC(=O)CC[C@H](N)C(=O)O)C(=O)NCC(=O)O
dasatinib, 0.02 µM: Cc1nc(Nc2ncc(C(=O)Nc3c(C)cccc3Cl)s2)cc(N2CCN(CCO)CC2)n1
bexarotene, 10 µM: C=C(c1ccc(C(=O)O)cc1)c1cc2c(cc1C)C(C)(C)CCC2(C)C
midostaurin, 0.4 µM: CO[C@@H]1[C@H](N(C)C(=O)c2ccccc2)C[C@H]2O[C@]1(C)n1c3ccccc3c3c4c(c5c6ccccc6n2c5c31)C(=O)NC4
XAV939, 10 µM: Oc1nc(-c2ccc(C(F)(F)F)cc2)nc2c1CSCC2
PD173074, 0.5 µM: CCN(CC)CCCCNc1ncc2cc(-c3cc(OC)cc(OC)c3)c(NC(=O)NC(C)(C)C)nc2n1
CP-690550, 5 µM: C[C@@H]1CCN(C(=O)CC#N)C[C@@H]1N(C)c1ncnc2[nH]ccc12
KU-55933, 5 µM: O=c1cc(-c2cccc3c2Sc2ccccc2S3)oc(N2CCOCC2)c1
tipifarnib, 0.05 µM: Cn1cncc1[C@@](N)(c1ccc(Cl)cc1)c1ccc2c(c1)c(-c1cccc(Cl)c1)cc(=O)n2C
embelin, 6 µM: CCCCCCCCCCCC1=C(O)C(=O)C=C(O)C1=O
cisplatin, 8 µM: N.N.[Cl][Pt][Cl]
OSU-03012, 5 µM: NCC(=O)Nc1ccc(-n2nc(C(F)(F)F)cc2-c2ccc3c(ccc4ccccc43)c2)cc1
veliparib, 7 µM: C[C@]1(c2nc3c(C(N)=O)cccc3[nH]2)CCCN1
GW441756, 2 µM: Cn1cc(/C=C2\C(=O)Nc3cccnc32)c2ccccc21
lapatinib, 4 µM: CS(=O)(=O)CCNCc1ccc(-c2ccc3ncnc(Nc4ccc(OCc5cccc(F)c5)c(Cl)c4)c3c2)o1
AS-252424, 5 µM: O=C1NC(=O)/C(=C/c2ccc(-c3ccc(F)cc3O)o2)S1
sunitinib, 2 µM: CCN(CC)CCNC(=O)c1c(C)[nH]c(/C=C2\C(=O)Nc3ccc(F)cc32)c1C
enzastaurin, 4 µM: Cn1cc(C2=C(c3cn(C4CCN(Cc5ccccn5)CC4)c4ccccc34)C(=O)NC2=O)c2ccccc21
YM155, 0.002 µM: COCC[n+]1c2c(n(Cc3cnccn3)c1C)C(=O)c1ccccc1C2=O
bortezomib, 0.005 µM: CC(C)C[C@H](NC(=O)[C@H](Cc1ccccc1)NC(=O)c1cnccn1)B(O)O
indole-3-carbinol, 4 µM: OCc1c[nH]c2ccccc12
NVP-TAE684, 0.4 µM: COc1cc(N2CCC(N3CCN(C)CC3)CC2)ccc1Nc1ncc(Cl)c(Nc2ccccc2S(=O)(=O)C(C)C)n1
SU6656, 2 µM: CN(C)S(=O)(=O)c1ccc2c(c1)/C(=C/c1cc3c([nH]1)CCCC3)C(=O)N2
KU-0063794, 0.1 µM: COc1ccc(-c2ccc3c(N4CCOCC4)nc(N4C[C@@H](C)O[C@@H](C)C4)nc3n2)cc1CO
SNS-314, 0.004 µM: O=C(Nc1cccc(Cl)c1)Nc1ncc(CCNc2ncnc3ccsc23)s1
tamatinib, 2 µM: COc1cc(Nc2ncc(F)c(Nc3ccc4c(n3)NC(=O)C(C)(C)O4)n2)cc(OC)c1OC
nilotinib, 1 µM: Cc1cn(-c2cc(NC(=O)c3ccc(C)c(Nc4nccc(-c5cccnc5)n4)c3)cc(C(F)(F)F)c2)cn1
T0901317, 7 µM: O=S(=O)(c1ccccc1)N(CC(F)(F)F)c1ccc(C(O)(C(F)(F)F)C(F)(F)F)cc1
ABT-263, 2 µM: CC1(C)CCC(c2ccc(Cl)cc2)=C(CN2CCN(c3ccc(C(=O)NS(=O)(=O)c4ccc(N[C@H](CCN5CCOCC5)CSc5ccccc5)c(S(=O)(=O)C(F)(F)F)c4)cc3)CC2)C1

| Second drug | COLO 829 | COLO 800 | WM3619 | COLO 792 |
|---|---|---|---|---|
| embelin | 69.9 | 101 | 84.4 | 80.0 |
| XAV939 | 82.5 | 144 | 91.7 | 94.1 |
| enzastaurin | 80.9 | 131 | 62.5 | 147 |
| bexarotene | 50.1 | 105 | 66.5 | 89.5 |
| cisplatin | 66.7 | 62.4 | 57.7 | 88.5 |
| tipifarnib | 73.0 | 53.3 | 67.6 | 63.3 |
| SNS-314 | 68.8 | 54.4 | 77.9 | 54.5 |
| T0901317 | 66.4 | 124 | 58.7 | 88.4 |
| KU-55933 | 83.1 | 48.9 | 56.9 | 83.4 |
| nilotinib | 91.5 | 115 | 95.2 | 72.4 |
| sunitinib | 89.3 | 51.3 | 79.8 | 58.7 |
| GW441756 | 76.6 | 67.6 | 111 | 97.6 |
| darinaparsin | 58.1 | 76.8 | 77.1 | 134 |
| PD173074 | 65.0 | 75.7 | 77.3 | 90.9 |
| ABT-263 | 63.2 | 71.1 | 44.7 | 12.3 |
| lapatinib | 76.2 | 70.2 | - | 85.4 |
| veliparib | 43.5 | 47.2 | 105 | 56.4 |
| tamatinib | 62.2 | 38.7 | 71.3 | 32.0 |
| YM155 | 48.6 | 43.6 | 56.8 | 69.4 |
| SU6656 | 73.8 | 54.4 | 87.8 | 67.9 |
| CP-690550 | 95.5 | 87.5 | 99.8 | 82.6 |
| OSU-03012 | 62.0 | 47.3 | 64.3 | 56.3 |
| midostaurin | 49.8 | 25.3 | 54.0 | 56.5 |
| dasatinib | 30.2 | 83.1 | 62.9 | 45.2 |
| AS-252424 | 70.5 | 121 | 69.9 | 92.3 |
| indole-3-carbinol | 77.6 | 73.1 | 81.0 | 112 |
| bortezomib | 21.7 | 65.9 | 3.3 | 52.2 |
| NVP-TAE684 | 76.4 | 78.8 | 89.0 | 78.3 |
| KU-0063794 | 67.8 | 59.1 | 78.0 | 77.3 |

The last 2 entries again:

Second drug	COLO 829	COLO 800	WM3619	COLO 792
NVP-TAE684	76.4	78.8	89.0	78.3
KU-0063794	67.8	59.1	78.0	77.3